Reference: PMC9182688
No constants are given. Whether binding was seen depends on the method and setting. Binding seen in cells or lysates may run through a third protein. Some binding calls cover weakened binding; strength is not graded here.

Amino acid sequences for entries named in this document (tags omitted).
UniProt P09429: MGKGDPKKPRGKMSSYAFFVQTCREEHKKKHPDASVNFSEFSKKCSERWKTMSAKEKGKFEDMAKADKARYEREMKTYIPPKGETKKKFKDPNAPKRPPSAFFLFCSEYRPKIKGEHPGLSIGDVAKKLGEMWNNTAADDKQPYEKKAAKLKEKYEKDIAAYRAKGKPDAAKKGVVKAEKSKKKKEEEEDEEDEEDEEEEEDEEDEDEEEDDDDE
UniProt P03165: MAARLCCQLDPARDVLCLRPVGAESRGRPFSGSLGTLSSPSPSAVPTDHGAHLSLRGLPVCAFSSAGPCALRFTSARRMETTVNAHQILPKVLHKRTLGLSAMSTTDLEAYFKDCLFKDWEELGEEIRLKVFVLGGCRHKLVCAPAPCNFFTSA

Biological target: high mobility group box 1 protein (HMGB1), endogenous (human (endogenous in HepG2)) (UniProt P09429)
Assay: co-IP; HepG2 cells transfected with FLAG-HBx for 3 days; endogenous HMGB1 immunoprecipitated with Anti-HMGB1/HMG1 magnetic beads IP kit; Western blot of HMGB1 and FLAG-HBx

Question: With “N-terminally FLAG-tagged HBx protein (hepatitis B virus X protein) (from UniProt P03165 1-154)” as the substance, how does the binding read?
Answer: Its binding is “binds”.
